Measurements reported in paper PMC9324012.
These are yes or no findings as the source states them, for the method shown. For some of these results: In cells and extracts the contact can be indirect. Some binding calls cover weakened binding; strength is not graded here. For some of these results: Tags and fused reporters may be left off the sequences shown. Each block holds one molecule with its values, some of them ahead of it.

Amino acid sequences for entries named in this document (tags omitted).
UniProt Q15672: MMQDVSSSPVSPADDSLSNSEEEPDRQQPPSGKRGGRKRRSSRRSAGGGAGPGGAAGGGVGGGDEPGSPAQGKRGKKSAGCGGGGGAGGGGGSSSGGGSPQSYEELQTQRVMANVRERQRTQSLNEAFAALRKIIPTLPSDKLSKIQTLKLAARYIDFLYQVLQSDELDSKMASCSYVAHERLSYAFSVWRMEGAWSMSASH
UniProt Q09028: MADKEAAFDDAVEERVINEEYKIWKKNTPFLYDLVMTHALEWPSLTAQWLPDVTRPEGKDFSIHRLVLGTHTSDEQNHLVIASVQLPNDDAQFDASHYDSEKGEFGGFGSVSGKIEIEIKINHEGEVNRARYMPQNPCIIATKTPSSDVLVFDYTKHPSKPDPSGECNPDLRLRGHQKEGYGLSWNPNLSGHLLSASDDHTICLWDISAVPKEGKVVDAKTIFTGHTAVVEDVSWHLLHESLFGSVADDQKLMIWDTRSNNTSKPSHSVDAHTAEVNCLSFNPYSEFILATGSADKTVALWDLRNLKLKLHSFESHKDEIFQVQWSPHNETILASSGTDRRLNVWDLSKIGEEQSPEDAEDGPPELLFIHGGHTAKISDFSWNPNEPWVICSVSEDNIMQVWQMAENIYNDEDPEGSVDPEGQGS
UniProt Q92769: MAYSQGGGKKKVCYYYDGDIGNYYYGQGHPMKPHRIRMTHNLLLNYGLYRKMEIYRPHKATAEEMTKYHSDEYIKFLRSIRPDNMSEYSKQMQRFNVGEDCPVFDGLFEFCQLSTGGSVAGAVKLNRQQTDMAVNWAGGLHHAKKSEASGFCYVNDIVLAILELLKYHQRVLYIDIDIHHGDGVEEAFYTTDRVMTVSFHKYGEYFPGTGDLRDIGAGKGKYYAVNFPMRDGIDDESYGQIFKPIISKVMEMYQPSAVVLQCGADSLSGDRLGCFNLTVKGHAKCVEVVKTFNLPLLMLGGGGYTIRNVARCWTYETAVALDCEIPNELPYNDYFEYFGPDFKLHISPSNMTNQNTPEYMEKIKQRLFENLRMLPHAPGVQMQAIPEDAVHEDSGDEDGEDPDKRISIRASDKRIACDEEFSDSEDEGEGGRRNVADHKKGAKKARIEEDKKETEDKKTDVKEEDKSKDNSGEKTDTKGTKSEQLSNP

Columns and labels:
[1] = molecular target: T1, GST/His-fused ZEB2 purified from E. coli (UniProt A0JP08); assay: pull-down; GST pull-down: GST-fused proteins mixed with 6*His-fused proteins, all purified from E. coli; glutathione beads 4 h, five washes, Western blot; both purified
T1 sequence: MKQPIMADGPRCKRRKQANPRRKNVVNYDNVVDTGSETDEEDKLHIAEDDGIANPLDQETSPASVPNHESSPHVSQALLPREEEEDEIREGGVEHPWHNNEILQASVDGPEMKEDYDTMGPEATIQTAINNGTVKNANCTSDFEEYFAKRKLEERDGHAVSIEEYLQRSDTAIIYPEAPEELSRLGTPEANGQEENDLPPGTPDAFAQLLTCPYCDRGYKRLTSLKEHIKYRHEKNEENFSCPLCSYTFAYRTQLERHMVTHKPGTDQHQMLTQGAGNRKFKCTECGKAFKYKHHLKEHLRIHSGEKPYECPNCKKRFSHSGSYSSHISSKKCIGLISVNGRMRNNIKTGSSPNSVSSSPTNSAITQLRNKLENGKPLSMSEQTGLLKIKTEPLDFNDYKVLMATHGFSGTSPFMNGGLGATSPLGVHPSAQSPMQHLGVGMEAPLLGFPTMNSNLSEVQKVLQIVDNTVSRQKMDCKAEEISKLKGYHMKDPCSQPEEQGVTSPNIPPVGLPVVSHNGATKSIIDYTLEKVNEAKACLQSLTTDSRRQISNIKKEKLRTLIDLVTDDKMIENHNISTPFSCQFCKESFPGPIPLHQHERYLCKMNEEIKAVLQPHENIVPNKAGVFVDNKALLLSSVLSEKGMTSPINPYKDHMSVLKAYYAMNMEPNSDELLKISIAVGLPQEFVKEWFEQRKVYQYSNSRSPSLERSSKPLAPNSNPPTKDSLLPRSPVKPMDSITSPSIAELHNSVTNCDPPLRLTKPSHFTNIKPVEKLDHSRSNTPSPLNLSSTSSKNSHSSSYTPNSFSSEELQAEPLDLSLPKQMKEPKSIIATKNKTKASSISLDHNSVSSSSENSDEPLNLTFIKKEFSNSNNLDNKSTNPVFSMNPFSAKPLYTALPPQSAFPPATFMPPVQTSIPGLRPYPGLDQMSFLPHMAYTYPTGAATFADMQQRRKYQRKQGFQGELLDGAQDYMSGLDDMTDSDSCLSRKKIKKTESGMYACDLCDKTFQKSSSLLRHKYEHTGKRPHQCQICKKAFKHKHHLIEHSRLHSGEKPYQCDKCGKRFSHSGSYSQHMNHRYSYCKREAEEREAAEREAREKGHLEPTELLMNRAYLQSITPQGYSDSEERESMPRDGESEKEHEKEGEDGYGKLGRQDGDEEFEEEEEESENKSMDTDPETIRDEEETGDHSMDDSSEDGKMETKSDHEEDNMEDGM

[2] = molecular target: T2, HA-tagged ZEB2 (Zinc finger E-box-binding homeobox 2) (UniProt A0JP08); assay: co-IP; whole-cell lysates of SW480 cells overexpressing ZEB2 (without or with overexpressed TWIST1) immunoprecipitated for ZEB2, Western blot of the precipitates; IgG as negative control
T2 sequence: T1 sequence

[3] = molecular target: T3, ZEB2 immunoprecipitated from HT29, HCT116 and SW620 cells (UniProt A0JP08); assay: co-IP; immunoprecipitation of ZEB2 from HT29, HCT116 and SW620 cells, Western blot (Supplementary Figure S7)
T3 sequence: T1 sequence

FLAG-tagged TWIST1 [4] = molecular target: FLAG-tagged TWIST1 (UniProt Q15672); assay: co-IP; affinity purification from SW480 cells overexpressing FLAG-TWIST1 alone (no ZEB2 overexpression), Western blot
FLAG-tagged TWIST1 [5] = molecular target: FLAG-tagged TWIST1 (UniProt Q15672); assay: co-IP; SW480 cells overexpressing both FLAG-tagged TWIST1 and HA-tagged ZEB2; extracts immunoprecipitated with FLAG antibody, Western blot

binding [2]: binds | binding [3]: binds | binding (FLAG-tagged TWIST1 [4]): binds
Molecule: Histone-binding protein RBBP4 (RbAp48), endogenous (from UniProt Q09028 1-425)

binding (FLAG-tagged TWIST1 [5]): binds
B1: HA-tagged ZEB2 (Zinc finger E-box-binding homeobox 2) (protein, UniProt A0JP08 1-1213)
chain: T1 sequence

The remaining lines, values behind:

Molecule: GST/His-fused TWIST1 purified from E. coli (from UniProt Q15672 1-202)
binding [1]: binds

Molecule: HDAC2, endogenous (from UniProt Q92769 1-488) (enzyme)
binding [2]: binds | binding [3]: binds
